# Construct, isoform or probe ends are uncertain for at least one entry. Weaker means in comparison with the reference protein, sequence or condition of that experiment.
# Tested on: RAD51B + RAD51C + RAD51D + XRCC2
# Test: EMSA
# Settings: 1 mM ATP, 1 mM Mg acetate, EMSA: 1 nM DNA, 20 mM Tris-acetate pH 7.5, 1 mM DTT, 1 mM magnesium acetate, 0.1 mg/ml BSA, 30 min at 37 C, 6% PAGE in 1x TBE at 4 C, recombinant protein, protein details: FLAG,10xHis,none,none, label: 5'-32P on PC210
sequence,measurement,value
GTAAGTGCCGCGGTGCGGGTGCCAGGGCGTGCCCTTGGGCTCCCCGGGCGCGTACTCCACCTCATGCATC (double strand) [70-mer dsDNA (PC210/PC211)],binding result,binds more weakly

# Source: PMC9371921
